Test results reported in publication doi:10.1101/221093.
Where two headings read alike, the source gives them in different places. Results are given in words; binding and its absence hold for the method and conditions named. Binding seen in cells or lysates may run through a third protein. Here binding means that the protein was enriched with, or labelled near, the bait; the list need not be complete. For some of these results: Tags and fused reporters may be left off the sequences shown.

Sequences of proteins named here, by UniProt entry; tags and fusion partners are left off. A change or cut given only in a name is not applied to a line headed by its entry.
UniProt Q99496, whole entry, stated change not applied: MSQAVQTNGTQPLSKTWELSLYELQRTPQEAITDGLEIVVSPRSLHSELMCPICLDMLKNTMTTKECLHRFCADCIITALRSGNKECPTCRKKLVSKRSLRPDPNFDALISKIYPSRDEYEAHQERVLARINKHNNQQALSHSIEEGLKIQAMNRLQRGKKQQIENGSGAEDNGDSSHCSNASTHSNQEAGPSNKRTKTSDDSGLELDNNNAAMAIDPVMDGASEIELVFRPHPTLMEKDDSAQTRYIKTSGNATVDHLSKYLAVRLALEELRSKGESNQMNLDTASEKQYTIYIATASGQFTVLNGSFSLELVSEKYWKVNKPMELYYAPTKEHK
UniProt Q9BSM1, whole entry: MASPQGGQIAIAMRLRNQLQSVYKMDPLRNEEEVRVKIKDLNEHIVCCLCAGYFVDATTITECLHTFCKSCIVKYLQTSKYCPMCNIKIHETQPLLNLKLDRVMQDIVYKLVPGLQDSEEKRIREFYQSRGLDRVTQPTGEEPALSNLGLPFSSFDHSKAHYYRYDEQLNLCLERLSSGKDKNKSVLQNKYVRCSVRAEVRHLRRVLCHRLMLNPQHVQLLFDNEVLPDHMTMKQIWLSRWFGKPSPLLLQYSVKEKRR

T1: KDM2B-EGFP (UniProt Q8NHM5)
T1 sequence: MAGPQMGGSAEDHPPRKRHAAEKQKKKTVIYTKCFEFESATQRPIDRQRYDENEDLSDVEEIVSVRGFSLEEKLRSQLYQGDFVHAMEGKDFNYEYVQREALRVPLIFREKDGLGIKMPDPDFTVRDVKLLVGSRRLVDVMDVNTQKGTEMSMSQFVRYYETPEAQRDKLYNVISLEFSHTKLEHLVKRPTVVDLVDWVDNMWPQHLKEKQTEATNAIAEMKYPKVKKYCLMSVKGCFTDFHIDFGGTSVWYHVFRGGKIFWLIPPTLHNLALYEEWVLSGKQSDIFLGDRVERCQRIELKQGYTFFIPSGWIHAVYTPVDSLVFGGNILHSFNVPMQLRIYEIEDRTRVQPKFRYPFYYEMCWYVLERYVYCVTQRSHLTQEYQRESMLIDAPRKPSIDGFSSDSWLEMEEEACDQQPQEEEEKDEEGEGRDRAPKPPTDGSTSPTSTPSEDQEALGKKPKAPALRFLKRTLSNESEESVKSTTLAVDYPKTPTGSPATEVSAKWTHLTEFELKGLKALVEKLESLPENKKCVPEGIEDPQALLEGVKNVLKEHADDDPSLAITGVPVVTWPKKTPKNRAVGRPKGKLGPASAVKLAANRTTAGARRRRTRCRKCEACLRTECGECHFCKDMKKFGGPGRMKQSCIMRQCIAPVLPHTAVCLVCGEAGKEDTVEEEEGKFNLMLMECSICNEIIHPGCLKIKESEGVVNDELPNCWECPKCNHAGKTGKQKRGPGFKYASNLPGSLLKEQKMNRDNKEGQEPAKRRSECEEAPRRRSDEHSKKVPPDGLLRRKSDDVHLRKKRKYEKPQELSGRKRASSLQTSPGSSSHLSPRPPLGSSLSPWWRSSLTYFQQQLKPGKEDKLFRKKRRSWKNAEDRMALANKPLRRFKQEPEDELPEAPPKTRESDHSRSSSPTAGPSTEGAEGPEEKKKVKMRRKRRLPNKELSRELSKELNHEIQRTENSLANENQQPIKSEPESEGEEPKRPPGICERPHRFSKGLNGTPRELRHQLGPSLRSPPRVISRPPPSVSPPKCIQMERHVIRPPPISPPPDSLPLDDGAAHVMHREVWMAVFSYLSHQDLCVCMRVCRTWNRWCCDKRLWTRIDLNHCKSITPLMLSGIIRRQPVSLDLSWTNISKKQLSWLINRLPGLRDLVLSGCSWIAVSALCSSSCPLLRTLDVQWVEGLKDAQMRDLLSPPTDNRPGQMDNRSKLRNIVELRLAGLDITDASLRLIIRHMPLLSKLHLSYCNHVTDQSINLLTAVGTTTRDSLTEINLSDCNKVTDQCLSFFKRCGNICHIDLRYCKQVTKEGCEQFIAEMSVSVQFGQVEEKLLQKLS

B1: PCGF2 (endogenous) (protein, UniProt P35227 1-344)
chain: MHRTTRIKITELNPHLMCALCGGYFIDATTIVECLHSFCKTCIVRYLETNKYCPMCDVQVHKTRPLLSIRSDKTLQDIVYKLVPGLFKDEMKRRRDFYAAYPLTEVPNGSNEDRGEVLEQEKGALSDDEIVSLSIEFYEGARDRDEKKGPLENGDGDKEKTGVRFLRCPAAMTVMHLAKFLRNKMDVPSKYKVEVLYEDEPLKEYYTLMDIAYIYPWRRNGPLPLKYRVQPACKRLTLATVPTPSEGTNTSGASECESVSDKAPSPATLPATSSSLPSPATPSHGSPSSHGPPATHPTSPTPPSTASGATTAANGGSLNCLQTPSSTSRGRKMTVNGAPVPPLT
B2: CBX4 (protein, UniProt O00257 1-560)
chain: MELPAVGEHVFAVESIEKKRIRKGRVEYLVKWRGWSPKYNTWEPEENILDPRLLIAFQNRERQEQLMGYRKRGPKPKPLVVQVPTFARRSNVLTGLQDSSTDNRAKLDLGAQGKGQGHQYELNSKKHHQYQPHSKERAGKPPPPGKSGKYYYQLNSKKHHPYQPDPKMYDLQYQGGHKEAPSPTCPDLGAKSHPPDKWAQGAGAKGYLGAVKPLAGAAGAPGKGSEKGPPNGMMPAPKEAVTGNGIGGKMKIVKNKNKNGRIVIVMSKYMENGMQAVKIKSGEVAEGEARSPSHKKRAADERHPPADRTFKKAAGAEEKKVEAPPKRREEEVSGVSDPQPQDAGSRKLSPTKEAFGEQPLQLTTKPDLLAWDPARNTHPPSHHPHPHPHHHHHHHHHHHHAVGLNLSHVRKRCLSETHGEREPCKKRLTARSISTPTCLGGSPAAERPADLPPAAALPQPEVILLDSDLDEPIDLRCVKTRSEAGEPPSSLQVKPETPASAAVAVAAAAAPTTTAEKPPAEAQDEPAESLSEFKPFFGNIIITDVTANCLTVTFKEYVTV

What was measured:
Experiment in all cases: affinity purification with mass spectrometry
EGFP-RING1B [1] = biological target: EGFP-RING1B (UniProt Q99496)
PCGF1-EGFP = PCGF1-EGFP (UniProt Q9BSM1)
KDM2B-EGFP = biological target: T1, KDM2B-EGFP
EGFP-RING1B [2] = biological target: EGFP-RING1B (UniProt Q99496); remark: listed apart in the source

Molecule | binding (EGFP-RING1B [1]) | binding (PCGF1-EGFP) | binding (KDM2B-EGFP) | binding (EGFP-RING1B [2])
SCMH1 (from UniProt Q96GD3 1-660) | binds |  |  | 
SCML2 (from UniProt Q9UQR0 1-700) | binds |  |  | 
ubiquitin-specific protease 7 (USP7) (from UniProt Q93009 1-1102) (enzyme) | binds | binds | binds | 
B1 |  |  |  | binds
B2 |  |  |  | binds
